Experiment [1] concerns the target V5-tagged CUL2 (cullin 2) (UniProt Q13617). In words: co-IP; 293FT cells cotransfected, lysed 72 h posttransfection; lysates precleared with protein A/G agarose beads (4°C, 4 h); CUL-V5 precipitated with 1 μg anti-V5 antibody overnight and protein A/G agarose beads; five washes; Western blot. (In western blotting, separated proteins are transferred to a membrane and probed.)

Protein sequences, listed by entry. Tags and fused reporters are not part of them.
UniProt Q13617: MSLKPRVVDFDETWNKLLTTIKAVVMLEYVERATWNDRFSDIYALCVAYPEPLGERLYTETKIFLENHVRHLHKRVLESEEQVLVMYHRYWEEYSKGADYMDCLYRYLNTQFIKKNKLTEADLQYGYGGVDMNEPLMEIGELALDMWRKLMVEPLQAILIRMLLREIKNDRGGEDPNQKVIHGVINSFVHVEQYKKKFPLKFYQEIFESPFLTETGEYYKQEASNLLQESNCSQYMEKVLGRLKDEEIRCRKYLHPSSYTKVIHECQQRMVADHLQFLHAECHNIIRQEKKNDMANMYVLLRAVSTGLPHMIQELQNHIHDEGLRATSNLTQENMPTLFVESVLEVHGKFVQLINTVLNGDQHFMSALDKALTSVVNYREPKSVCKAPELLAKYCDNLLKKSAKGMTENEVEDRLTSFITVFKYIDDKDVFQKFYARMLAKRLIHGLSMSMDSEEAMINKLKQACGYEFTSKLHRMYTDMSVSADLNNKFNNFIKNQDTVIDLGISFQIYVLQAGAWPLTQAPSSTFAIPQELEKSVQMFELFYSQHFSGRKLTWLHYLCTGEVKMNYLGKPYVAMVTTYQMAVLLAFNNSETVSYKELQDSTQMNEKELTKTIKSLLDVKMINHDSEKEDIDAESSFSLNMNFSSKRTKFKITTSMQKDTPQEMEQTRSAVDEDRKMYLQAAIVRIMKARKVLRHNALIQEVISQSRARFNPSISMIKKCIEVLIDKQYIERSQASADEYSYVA
UniProt P31941: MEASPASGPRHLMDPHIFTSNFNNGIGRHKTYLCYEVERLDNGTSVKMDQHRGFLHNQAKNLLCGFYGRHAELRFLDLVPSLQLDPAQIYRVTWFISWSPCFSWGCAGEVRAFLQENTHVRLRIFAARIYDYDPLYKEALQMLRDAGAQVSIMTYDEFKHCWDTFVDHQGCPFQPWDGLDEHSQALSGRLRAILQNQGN
UniProt P03129: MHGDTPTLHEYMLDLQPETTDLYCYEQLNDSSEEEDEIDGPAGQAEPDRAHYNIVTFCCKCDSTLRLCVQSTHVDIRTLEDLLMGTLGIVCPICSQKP
UniProt P06788: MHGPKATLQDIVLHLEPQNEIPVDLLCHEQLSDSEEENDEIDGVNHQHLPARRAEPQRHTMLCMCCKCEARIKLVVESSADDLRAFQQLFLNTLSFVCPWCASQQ

Experiment [2] addresses hemagglutinin (HA)-tagged APOBEC3A (human) (UniProt P31941). The experiment in a line: co-IP.
The next experiment deals with V5-tagged CUL3 (UniProt Q13618). The experiment in a line: co-IP; 293FT cells cotransfected, lysed 72 h posttransfection; lysates precleared with protein A/G agarose beads (4°C, 4 h); CUL-V5 precipitated with 1 μg anti-V5 antibody overnight and protein A/G agarose beads; five washes; Western blot.
The target in experiment [3] is V5-tagged CUL2 (cullin 2) (UniProt Q13617). In words: co-IP.

These are yes or no findings as the source states them, for the method shown. In cells and extracts the contact can be indirect. Some entries that bind do so weakly or less than the wild type.

On to “HPV16 E7 (wild type) (from UniProt P03129 1-98)”, for which the binding result in experiment [1] was “binds”; in experiment [2] it was “no binding”.

Turning to HPV18 E7 (from UniProt P06788 1-105), the binding result is “no binding” in experiment [1] and “binds weakly” with V5-tagged CUL3.

Turning to “hemagglutinin (HA)-tagged APOBEC3A (from UniProt P31941 1-199)”, the binding result in experiment [3] is “binds”.

The values are drawn from PMC5972886.
